Consider two sequences from PMC10989989, “The archaeal KEOPS complex possesses a functional Gon7 homolog and has an essential function independent of the cellular t^6A modification level” (mLife, 2023).

For at least one entry, the source does not settle the construct or the ends of the probe. The comparison behind a weaker result is the experiment's own reference, which may not be listed here.

The subject of the data set is TkoCgi121 I75E (Thermococcus kodakarensis). The data set can be described thus: EMSA. The conditions noted are these: binding only at 20 uM, likely nonspecific, 50 mM Tris-HCl pH 8.0, 100 uM ATP, 37 C 30 min (45 min for the 45 nt ssDNA), 10 nM FAM probe (1 nM in Fig 6B), 8% native PAGE in 0.5x TBE at 4 C, recombinant protein, protein details: 6xHis, label: 5'-FAM.

Regarding “CAGTATGCTGCGTGAGGAATGATCCCATGACGTAACCACAGTGCC [FAM-ssDNA 45 nt with two CCA motifs]”, for the setting “single-stranded DNA”, the binding result was “binds more weakly”. As to “CAGTATGCTGCGTGAGGAATGATCCCATGACGTAACCACAGTGCC (double strand) [FAM-dsDNA 45 bp with two CCA motifs]”, the binding result was “binds more weakly”.
